From the supplement of paper PMC7580552 come the findings set out here.

Where a name gives a salt, the structure may show the parent alone. The list shows a part of the results. Baselines shift from plate to plate; read single values as rough.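 A K-12 lab model strain is cultured statically in 96-well plates; biofilm is measured as the absorbance of crystal violet stain retained in the wells. Drugs counted as candidate specific biofilm blockers if they strongly reduced staining while slowing planktonic growth by under 70%.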

For the test, the system named is Escherichia coli W3110. Briefly: biofilm formation (crystal violet staining) relative to untreated control; higher = more biofilm. The note with it: 10 µM; 20-24 h; 30 °C; TB.
`C=CCN1CC[C@]23c4c5ccc(O)c4O[C@H]2C(=O)CC[C@@]3(O)[C@H]1C5` [Naloxone hydrochloride] registered a biofilm formation of 111%.

The molecule `CC(=O)O[C@H]1C[C@@H]2CC[C@@H]3[C@H](CC[C@@]4(C)[C@H]3C[C@H]([N+]3(C)CCCCC3)[C@@H]4OC(C)=O)[C@@]2(C)C[C@@H]1[N+]1(C)CCCCC1` [Pancuronium bromide] gave a biofilm formation of 67%. For `c1ccc2c(c1)Nc1ccccc1S2` [Phenothiazine] the value was 61%; for `COc1ccc(CN2CCNCC2)c(OC)c1OC` [Trimetazidine dihydrochloride], 76%; for `C[C@]12CC[C@H]3[C@@H](CCC4=CC(=O)CC[C@@H]43)[C@@H]1CC[C@@H]2O` [Nandrolone], 64%. As for `CN1[C@@H]2CC[C@H]1C[C@@H](OC(=O)[C@H](CO)c1ccccc1)C2` [Hyoscyamine (L)], the figure is 95%; as for `CN[C@@H]1C[C@@H](c2ccc(Cl)c(Cl)c2)c2ccccc21` [Indatraline hydrochloride], 94%; as for `O=[N+]([O-])O[C@@H]1CO[C@H]2[C@@H]1OC[C@@H]2O` [Isosorbide mononitrate], 72%. For `C[C@H](N)[C@H](O)c1ccc(O)c(O)c1` [Levonordefrin] the value was 81%; for `CC(C)N(CCC(C(N)=O)(c1ccccc1)c1ccccn1)C(C)C` (configuration not stated) [Disopyramide], 55%; for `C1CCc2nnnn2CC1` [Pentylenetetrazole], 75%. Take `CC(Cc1ccc(O)cc1)NCC(O)c1cc(O)cc(O)c1` (configuration not stated) [Fenoterol hydrobromide]: the biofilm formation turned out to be 60%. As for `C=CC[C@]1(O)CC[C@H]2[C@@H]3CCC4=CC(=O)CCC4=C3C=C[C@@]21C` [Altrenogest], the figure is 78%; as for `C[C@]12CC[C@@H](O)C[C@@H]1CC[C@@H]1[C@@H]2CC[C@]2(C)C(=O)CC[C@@H]12` [Androsterone], 86%; as for `CNCC(O)c1ccc(O)cc1` (racemic) [(+,-)-Synephrine], 64%.

For `COc1ccc2c(c1)[C@]13CCCC[C@@H]1[C@H](C2)N(C)CC3` [Dextromethorphan hydrobromide monohydrate], the biofilm formation was 60%. The molecule `S=C(NC1CCCCC1)N1CCC(c2cnc[nH]2)CC1` [Thioperamide maleate] gave a biofilm formation of 55%. `C#C[C@]1(O)CC[C@H]2[C@@H]3CCC4=CC(=O)CC[C@]4(C)[C@H]3CC[C@@]21C` [Ethisterone] yielded a biofilm formation of 71%.

In the case of `CC(C)[N+](C)(CCC(C(N)=O)(c1ccccc1)c1ccccc1)C(C)C` [Isopropamide iodide], the biofilm formation came to 83%. `O=C([O-])c1ccccc1-c1c2cc(Br)c(=O)cc-2oc2[c]([Hg+])c([O-])c(Br)cc12.[Na+].[Na+].[OH-]` [Merbromin] registered a biofilm formation of 53%. In turn, `O=c1[nH]c2ccccc2n1CCCN1CCC(n2c(=O)[nH]c3cc(Cl)ccc32)CC1` [Domperidone] had a biofilm formation of 90%. In turn, `CC(C)CC(N(C)C)C1(c2ccc(Cl)cc2)CCC1` (configuration not stated) [Sibutramine hydrochloride] came in with a biofilm formation of 81%.

`COc1ccc(C(=O)N2CCCC2=O)cc1` [Aniracetam] yielded a biofilm formation of 76%. The molecule `CC[C@@H](C(N)=O)N1CCCC1=O` [Levetiracetam] displayed a biofilm formation of 96%.

Consider `C[N+]1(C)CCOC(O)(c2ccc(-c3ccc(C4(O)C[N+](C)(C)CCO4)cc3)cc2)C1` (configuration not stated) [Hemicholinium bromide], for which the biofilm formation was determined as 76%. `C[C@]12CCC(=O)C=C1CC[C@@H]1[C@@H]2C(=O)C[C@]2(C)C(=O)CC[C@@H]12` [Adrenosterone] returned a biofilm formation of 57%. On to `CC[C@H](C)[C@H]1O[C@]2(C=C[C@@H]1C)C[C@@H]1C[C@@H](C/C=C(\C)[C@@H](O[C@H]3C[C@H](OC)[C@@H](O[C@H]4C[C@H](OC)[C@@H](O)[C@H](C)O4)[C@H](C)O3)[C@@H](C)/C=C/C=C3\CO[C@@H]4[C@H](O)C(C)=C[C@@H](C(=O)O1)[C@]34O)O2.CO[C@H]1C[C@H](O[C@H]2[C@H](C)O[C@@H](O[C@@H]3/C(C)=C/C[C@@H]4C[C@@H](C[C@]5(C=C[C@H](C)[C@@H](C(C)C)O5)O4)OC(=O)[C@@H]4C=C(C)[C@@H](O)[C@H]5OC/C(=C\C=C\[C@@H]3C)[C@]54O)C[C@@H]2OC)O[C@@H](C)[C@@H]1O` [Avermectin B1], for which the biofilm formation was 50%. As for `CCN[C@@H](C)Cc1cccc(C(F)(F)F)c1` [Dexfenfluramine hydrochloride], the figure is 95%. Take `CC(=O)OC1CN2CCC1CC2` (configuration not stated) [Aceclidine Hydrochloride]: the biofilm formation was found to be 91%. As for `CC(CCc1ccccc1)NC(C)C(O)c1ccc(O)cc1` (configuration not stated) [Nylidrin], the figure is 77%. For the molecule `COc1cccc(C2(O)CCCCC2CN(C)C)c1` (configuration not stated) [Tramadol hydrochloride], the biofilm formation stood at 45%. For `C[N+]1(C)[C@@H]2CC[C@H]1C[C@@H](OC(=O)C(CO)c1ccccc1)C2` (some centres not stated) [Methylatropine nitrate] the value was 68%; for `CN1C[C@H](C(=O)N[C@]2(C)O[C@@]3(O)[C@@H]4CCCN4C(=O)[C@H](Cc4ccccc4)N3C2=O)C[C@@H]2c3cccc4[nH]cc(c34)C[C@H]21` [Dihydroergotamine tartrate], 65%; for `C[N+](C)(C)CCCCCCCCCC[N+](C)(C)C` [Decamethonium bromide], 86%.

With `CCC(=O)O[C@@](Cc1ccccc1)(c1ccccc1)[C@@H](C)CN(C)C` [Levopropoxyphene napsylate], the biofilm formation stood at 60%. As for `CC[C@@]1(O)C(=O)OCc2c1cc1n(c2=O)Cc2cc3ccccc3nc2-1` [Camptothecine (S,+)], the figure is 86%; as for `COc1ccc(CCN)cc1OC` [Homoveratrylamine], 74%. As to `CCCN1C[C@H](CSC)C[C@@H]2c3cccc4[nH]cc(c34)C[C@H]21` [Pergolide mesylate], the biofilm formation was 53%. As for `CCN(CC)C(C)C(=O)c1ccccc1` (configuration not stated) [Amfepramone hydrochloride], the figure is 50%. Turning to `C[N+]1([O-])[C@@H]2C[C@@H](OC(=O)[C@H](CO)c3ccccc3)C[C@H]1[C@@H]1O[C@@H]12` (some centres not stated) [Scopolamin-N-oxide hydrobromide], the biofilm formation stood at 89%. In turn, `Oc1cc(Cl)ccc1Oc1ccc(Cl)cc1Cl` [Triclosan] returned a biofilm formation of 18%. For `CC(=O)O[C@H]1C[C@H](O[C@H]2[C@@H](O)C[C@H](O[C@H]3[C@@H](O)C[C@H](O[C@H]4CC[C@@]5(C)[C@H](CC[C@@H]6[C@@H]5C[C@@H](O)[C@]5(C)[C@@H](C7=CC(=O)OC7)CC[C@]65O)C4)O[C@@H]3C)O[C@@H]2C)O[C@H](C)[C@H]1O[C@@H]1O[C@H](CO)[C@@H](O)[C@H](O)[C@H]1O` [Lanatoside C] the value was 68%.
